# Results published in the M2OR odorant receptor database.
# Substitutions are numbered along the chain they refer to. Only a part is listed here, and it is no random draw. Calls are pooled over several reports, among them a noisy single-well screen. This is one part of the list.
# How the values were obtained:
# Details in all cases: stereoisomer not certain
# [1] = molecular target: T1, OR4S2 (Homo sapiens) (UniProt Q8NH73)
# T1 sequence (whole entry): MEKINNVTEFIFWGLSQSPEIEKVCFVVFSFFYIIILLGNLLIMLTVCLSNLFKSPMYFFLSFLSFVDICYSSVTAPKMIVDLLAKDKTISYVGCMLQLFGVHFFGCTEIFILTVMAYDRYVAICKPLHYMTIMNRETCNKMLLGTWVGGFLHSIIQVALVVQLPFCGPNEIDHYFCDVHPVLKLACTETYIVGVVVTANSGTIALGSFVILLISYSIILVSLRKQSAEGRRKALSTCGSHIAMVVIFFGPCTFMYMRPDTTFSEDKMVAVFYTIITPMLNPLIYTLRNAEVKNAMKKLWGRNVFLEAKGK
# In short: (§1)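 Values were gathered from published papers (main text and supplementary material), with extra details requested from the original authors when needed, and checked for typos and inconsistencies. Each receptor–molecule pair is called responsive (active) if the original authors judged the measured signal statistically different from baseline, and non-responsive (inactive) otherwise. Assay methods varied by source, often transient mammalian cell-line luciferase assays. Recorded details include cell line, G-protein, co-transfected protein and tags.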
# [2] = test system: T2, OR4X1
# T2 sequence (whole entry): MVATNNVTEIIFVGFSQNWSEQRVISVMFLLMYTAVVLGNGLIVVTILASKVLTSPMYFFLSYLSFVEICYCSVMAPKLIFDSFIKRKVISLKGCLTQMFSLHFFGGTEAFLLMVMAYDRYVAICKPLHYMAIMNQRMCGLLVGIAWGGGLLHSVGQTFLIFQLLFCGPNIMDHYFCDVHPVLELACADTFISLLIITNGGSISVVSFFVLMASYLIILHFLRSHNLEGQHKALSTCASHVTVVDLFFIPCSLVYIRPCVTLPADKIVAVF
# In short: as §1
# [3] = molecular target: T3, OR4X2 (Homo sapiens) (UniProt Q8NGF9)
# T3 sequence (whole entry): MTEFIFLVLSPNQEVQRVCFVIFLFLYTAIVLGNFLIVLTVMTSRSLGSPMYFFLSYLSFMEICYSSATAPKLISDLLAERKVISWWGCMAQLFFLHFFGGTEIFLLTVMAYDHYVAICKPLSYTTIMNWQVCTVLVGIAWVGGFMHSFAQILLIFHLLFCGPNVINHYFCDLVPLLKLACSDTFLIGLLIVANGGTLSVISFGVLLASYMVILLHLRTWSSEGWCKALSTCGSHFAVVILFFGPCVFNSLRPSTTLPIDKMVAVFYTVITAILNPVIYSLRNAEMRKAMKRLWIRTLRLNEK
# In short: as §1
# [4] = molecular target: T4, OR51A2 (Homo sapiens) (UniProt Q8NGJ7)
# T4 sequence (whole entry): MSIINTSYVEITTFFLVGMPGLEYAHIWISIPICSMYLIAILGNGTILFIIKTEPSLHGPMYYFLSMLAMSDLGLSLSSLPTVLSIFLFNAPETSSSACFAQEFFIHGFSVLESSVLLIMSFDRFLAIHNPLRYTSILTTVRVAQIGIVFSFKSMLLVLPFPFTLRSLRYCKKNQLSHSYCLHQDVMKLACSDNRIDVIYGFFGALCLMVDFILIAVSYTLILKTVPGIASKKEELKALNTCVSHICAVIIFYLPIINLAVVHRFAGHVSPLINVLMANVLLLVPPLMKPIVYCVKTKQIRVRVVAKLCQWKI
# In short: as §1
# [5] = molecular target: T5, OR51B2 (Homo sapiens) (UniProt Q9Y5P1)
# T5 sequence (whole entry): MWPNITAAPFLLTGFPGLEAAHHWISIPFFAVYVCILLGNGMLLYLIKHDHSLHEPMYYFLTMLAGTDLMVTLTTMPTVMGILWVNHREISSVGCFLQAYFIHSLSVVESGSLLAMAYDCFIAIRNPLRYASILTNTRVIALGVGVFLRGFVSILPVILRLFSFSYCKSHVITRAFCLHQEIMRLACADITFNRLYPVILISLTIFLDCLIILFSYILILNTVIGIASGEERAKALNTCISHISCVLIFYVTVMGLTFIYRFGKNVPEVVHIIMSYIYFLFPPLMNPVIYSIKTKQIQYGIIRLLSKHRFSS
# In short: as §1
# [6] = molecular target: T6, OR51D1 (Homo sapiens) (UniProt Q8NGF3)
# T6 sequence (whole entry): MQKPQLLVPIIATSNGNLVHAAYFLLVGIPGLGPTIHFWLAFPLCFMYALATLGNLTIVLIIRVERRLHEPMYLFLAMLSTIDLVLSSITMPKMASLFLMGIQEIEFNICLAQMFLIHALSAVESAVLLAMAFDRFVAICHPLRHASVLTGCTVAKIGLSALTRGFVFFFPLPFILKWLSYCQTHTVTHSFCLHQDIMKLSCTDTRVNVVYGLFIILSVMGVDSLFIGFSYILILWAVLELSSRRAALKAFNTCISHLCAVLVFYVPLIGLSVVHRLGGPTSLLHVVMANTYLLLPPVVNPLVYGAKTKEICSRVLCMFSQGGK
# In short: as §1
# [7] = molecular target: T7, OR51E1 (Homo sapiens) (UniProt Q8TCB6)
# T7 sequence (whole entry): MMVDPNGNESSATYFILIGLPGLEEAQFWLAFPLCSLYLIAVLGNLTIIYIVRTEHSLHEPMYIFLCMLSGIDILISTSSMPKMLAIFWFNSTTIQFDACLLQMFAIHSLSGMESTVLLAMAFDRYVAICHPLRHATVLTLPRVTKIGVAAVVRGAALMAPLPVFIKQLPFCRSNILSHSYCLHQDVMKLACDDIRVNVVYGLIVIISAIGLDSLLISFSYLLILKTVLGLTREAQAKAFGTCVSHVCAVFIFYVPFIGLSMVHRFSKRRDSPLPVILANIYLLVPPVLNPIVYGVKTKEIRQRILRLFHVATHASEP
# In short: as §1
# [8] = molecular target: T8, OR51E2 (Homo sapiens) (UniProt Q9H255)
# T8 sequence (whole entry): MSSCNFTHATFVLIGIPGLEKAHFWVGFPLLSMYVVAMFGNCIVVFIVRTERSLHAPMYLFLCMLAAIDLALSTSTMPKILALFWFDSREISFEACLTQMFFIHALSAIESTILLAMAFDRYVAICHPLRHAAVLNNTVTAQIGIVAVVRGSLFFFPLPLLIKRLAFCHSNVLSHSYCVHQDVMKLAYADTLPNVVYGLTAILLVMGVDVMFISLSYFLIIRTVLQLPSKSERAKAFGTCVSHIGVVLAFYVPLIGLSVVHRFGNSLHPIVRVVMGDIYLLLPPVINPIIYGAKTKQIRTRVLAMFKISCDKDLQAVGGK
# In short: as §1
# [9] = molecular target: T9, OR51G1 (Homo sapiens) (UniProt Q8NGK1)
# T9 sequence (whole entry): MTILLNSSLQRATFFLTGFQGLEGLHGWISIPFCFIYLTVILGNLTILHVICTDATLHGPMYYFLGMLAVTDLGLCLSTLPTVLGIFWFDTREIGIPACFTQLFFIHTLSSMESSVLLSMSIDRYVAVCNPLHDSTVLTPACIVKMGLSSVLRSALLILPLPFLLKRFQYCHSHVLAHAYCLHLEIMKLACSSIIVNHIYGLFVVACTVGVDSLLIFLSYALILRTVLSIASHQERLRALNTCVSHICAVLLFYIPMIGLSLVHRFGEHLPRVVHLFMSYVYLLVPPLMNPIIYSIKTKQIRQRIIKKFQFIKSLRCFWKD
# In short: as §1
# [10] = molecular target: T10, OR51H1 (Homo sapiens) (UniProt Q8NH63)
# T10 sequence (whole entry): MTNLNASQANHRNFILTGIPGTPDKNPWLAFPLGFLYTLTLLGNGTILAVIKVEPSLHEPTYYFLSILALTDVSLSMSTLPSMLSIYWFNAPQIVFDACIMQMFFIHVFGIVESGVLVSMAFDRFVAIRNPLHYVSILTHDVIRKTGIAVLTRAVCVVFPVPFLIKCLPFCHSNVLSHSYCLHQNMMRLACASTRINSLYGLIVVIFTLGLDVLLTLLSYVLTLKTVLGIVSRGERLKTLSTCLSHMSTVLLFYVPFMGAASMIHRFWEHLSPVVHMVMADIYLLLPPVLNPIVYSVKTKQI
# In short: as §1
# [11] = molecular target: T11, OR51B5 (Homo sapiens) (UniProt Q9H339)
# T11 sequence (whole entry): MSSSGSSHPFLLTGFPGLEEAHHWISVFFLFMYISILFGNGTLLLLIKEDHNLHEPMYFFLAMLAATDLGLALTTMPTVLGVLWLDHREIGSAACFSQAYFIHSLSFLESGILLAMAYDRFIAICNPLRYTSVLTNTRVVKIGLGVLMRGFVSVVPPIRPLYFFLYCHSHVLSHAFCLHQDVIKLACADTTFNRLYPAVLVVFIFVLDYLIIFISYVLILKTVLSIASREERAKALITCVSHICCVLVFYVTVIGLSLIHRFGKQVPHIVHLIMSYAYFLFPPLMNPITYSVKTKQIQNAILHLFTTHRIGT
# In short: as §1
# [12] = molecular target: T12, OR51E1 (Homo sapiens) (UniProt Q8TCB6); remark: listed apart in the source
# T12 sequence (whole entry): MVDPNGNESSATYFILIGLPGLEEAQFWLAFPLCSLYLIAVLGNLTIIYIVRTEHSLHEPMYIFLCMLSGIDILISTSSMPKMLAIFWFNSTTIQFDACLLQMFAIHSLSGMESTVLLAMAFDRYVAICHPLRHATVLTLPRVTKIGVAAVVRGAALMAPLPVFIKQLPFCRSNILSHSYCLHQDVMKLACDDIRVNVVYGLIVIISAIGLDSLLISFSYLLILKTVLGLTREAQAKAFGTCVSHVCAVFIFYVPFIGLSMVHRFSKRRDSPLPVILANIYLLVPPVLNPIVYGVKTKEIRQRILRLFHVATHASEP
# In short: as §1
# [13] = molecular target: T13, OR51A4 (Homo sapiens) (UniProt Q8NGJ6)
# T13 sequence (whole entry): T4 sequence (whole entry) with G59E, T94I, S97N, S167N, P227L, E235Q, G267R, M288T, K289N, W311R
# In short: as §1
Compound,odorant receptor agonist call [1],odorant receptor agonist call [2],odorant receptor agonist call [3],odorant receptor agonist call [4],odorant receptor agonist call [5],odorant receptor agonist call [6],odorant receptor agonist call [7],odorant receptor agonist call [8],odorant receptor agonist call [9],odorant receptor agonist call [10],odorant receptor agonist call [11],odorant receptor agonist call [12],odorant receptor agonist call [13]
CC(C)C(=O)O,inactive,inactive,inactive,inactive,inactive,inactive,inactive,active,inactive,inactive,,,
CCCCCCCC=O,inactive,inactive,inactive,inactive,inactive,inactive,inactive,inactive,inactive,inactive,inactive,inactive,
CC1COCc2cc3c(cc21)C(C)(C)C(C)C3(C)C (centres undefined),active,active,inactive,active,inactive,inactive,inactive,inactive,inactive,inactive,,,
CCCCO,inactive,inactive,inactive,inactive,inactive,inactive,active,inactive,inactive,inactive,inactive,,
CC(C)=CCCC(C)=CC=O,inactive,inactive,inactive,active,active,inactive,active,inactive,inactive,inactive,,,active
O=CCc1ccccc1,inactive,inactive,inactive,active,inactive,inactive,inactive,inactive,inactive,inactive,,,
